The values below come from the supplement of paper PMC10849652.

The chains behind the UniProt entries cited, without tags or fusion partners. Where a name states a change or a piece, a line headed by the entry shows the natural chain unless it says otherwise.
UniProt Q8N128: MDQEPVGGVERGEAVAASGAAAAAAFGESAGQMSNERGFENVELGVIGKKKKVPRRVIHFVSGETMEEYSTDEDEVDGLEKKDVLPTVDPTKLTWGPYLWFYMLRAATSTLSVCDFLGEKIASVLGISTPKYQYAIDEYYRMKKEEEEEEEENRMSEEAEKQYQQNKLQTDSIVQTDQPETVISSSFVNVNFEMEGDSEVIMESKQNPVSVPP
UniProt P16422: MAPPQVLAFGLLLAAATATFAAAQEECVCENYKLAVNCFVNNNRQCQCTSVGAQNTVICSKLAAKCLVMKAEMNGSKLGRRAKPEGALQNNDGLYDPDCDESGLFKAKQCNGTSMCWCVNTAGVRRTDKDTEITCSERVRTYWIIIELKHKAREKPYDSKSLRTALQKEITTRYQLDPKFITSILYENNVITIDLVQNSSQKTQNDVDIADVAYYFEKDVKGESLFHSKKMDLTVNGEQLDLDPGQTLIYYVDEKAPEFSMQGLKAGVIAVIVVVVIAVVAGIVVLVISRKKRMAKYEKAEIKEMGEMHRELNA
UniProt P10768: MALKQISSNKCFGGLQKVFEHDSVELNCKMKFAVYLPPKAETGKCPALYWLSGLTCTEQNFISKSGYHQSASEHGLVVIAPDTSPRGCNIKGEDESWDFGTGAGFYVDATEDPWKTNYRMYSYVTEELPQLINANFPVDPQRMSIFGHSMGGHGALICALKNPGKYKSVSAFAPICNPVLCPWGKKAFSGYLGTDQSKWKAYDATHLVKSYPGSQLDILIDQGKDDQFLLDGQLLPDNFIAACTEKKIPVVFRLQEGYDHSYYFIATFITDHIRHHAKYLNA
UniProt Q96PL5: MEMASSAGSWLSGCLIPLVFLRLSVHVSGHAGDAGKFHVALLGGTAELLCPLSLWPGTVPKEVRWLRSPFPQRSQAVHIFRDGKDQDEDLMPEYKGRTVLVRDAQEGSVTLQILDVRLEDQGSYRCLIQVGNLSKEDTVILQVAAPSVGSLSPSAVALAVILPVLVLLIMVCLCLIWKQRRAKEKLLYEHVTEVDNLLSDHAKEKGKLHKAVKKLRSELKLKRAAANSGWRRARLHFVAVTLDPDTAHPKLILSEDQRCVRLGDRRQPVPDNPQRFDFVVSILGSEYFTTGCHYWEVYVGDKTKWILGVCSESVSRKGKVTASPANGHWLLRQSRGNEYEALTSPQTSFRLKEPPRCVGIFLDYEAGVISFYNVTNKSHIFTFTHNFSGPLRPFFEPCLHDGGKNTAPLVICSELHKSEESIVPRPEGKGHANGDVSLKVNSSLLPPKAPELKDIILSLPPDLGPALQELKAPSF
UniProt Q01844: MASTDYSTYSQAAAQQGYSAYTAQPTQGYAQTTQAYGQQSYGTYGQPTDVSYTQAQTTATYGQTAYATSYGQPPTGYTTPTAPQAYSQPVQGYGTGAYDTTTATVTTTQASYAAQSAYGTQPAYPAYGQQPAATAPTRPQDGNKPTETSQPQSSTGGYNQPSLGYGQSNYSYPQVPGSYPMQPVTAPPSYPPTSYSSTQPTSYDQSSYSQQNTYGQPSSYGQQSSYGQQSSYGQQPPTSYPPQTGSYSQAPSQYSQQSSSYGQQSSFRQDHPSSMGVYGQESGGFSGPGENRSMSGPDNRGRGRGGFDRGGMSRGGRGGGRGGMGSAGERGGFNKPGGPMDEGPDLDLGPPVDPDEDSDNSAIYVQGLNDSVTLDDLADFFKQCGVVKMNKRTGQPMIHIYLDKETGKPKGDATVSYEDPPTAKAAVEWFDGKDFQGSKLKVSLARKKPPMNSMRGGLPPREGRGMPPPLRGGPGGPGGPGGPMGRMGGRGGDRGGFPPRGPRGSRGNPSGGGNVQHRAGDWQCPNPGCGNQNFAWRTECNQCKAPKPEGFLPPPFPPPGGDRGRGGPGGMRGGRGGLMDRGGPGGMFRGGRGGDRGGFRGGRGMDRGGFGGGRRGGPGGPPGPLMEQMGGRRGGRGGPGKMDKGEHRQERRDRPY
UniProt P13804: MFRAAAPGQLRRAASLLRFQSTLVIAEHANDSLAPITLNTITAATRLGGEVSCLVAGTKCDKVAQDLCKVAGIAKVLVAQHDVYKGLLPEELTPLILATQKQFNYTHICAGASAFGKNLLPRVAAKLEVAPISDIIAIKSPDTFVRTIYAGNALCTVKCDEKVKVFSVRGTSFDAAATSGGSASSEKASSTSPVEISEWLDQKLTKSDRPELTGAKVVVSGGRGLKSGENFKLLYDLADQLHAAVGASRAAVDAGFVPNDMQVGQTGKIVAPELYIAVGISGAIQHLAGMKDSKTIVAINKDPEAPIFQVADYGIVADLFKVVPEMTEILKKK
UniProt Q8IYI6: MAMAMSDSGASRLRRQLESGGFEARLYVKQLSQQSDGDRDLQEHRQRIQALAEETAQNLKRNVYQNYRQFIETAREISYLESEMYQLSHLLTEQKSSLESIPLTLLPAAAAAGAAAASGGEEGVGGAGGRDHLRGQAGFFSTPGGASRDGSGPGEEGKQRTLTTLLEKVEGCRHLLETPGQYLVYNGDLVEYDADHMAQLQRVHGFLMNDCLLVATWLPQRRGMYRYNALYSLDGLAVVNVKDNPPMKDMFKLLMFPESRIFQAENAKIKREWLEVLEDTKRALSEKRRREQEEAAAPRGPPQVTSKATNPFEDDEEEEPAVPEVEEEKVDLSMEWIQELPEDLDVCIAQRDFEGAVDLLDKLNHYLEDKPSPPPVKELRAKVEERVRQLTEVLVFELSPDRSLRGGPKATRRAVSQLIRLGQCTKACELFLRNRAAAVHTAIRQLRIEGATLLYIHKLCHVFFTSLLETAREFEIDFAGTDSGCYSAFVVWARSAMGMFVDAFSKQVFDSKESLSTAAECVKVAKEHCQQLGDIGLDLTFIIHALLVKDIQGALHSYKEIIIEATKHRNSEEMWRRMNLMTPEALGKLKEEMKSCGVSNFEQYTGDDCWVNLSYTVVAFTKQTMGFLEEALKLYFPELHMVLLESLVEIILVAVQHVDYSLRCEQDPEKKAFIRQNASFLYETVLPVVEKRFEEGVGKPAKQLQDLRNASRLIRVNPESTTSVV
UniProt Q9Y5Q0: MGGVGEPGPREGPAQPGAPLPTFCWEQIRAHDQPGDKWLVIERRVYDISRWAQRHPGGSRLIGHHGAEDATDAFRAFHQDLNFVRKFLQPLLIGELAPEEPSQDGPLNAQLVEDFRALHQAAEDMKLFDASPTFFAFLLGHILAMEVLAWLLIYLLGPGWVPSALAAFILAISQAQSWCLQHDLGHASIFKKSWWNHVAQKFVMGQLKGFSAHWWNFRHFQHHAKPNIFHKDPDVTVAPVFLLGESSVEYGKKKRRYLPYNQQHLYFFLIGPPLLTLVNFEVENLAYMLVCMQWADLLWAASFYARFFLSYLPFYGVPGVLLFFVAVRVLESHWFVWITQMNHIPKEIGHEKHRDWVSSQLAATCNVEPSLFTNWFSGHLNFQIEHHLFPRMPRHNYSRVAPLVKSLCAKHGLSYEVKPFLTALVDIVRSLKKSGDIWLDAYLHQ
UniProt Q9UBQ6: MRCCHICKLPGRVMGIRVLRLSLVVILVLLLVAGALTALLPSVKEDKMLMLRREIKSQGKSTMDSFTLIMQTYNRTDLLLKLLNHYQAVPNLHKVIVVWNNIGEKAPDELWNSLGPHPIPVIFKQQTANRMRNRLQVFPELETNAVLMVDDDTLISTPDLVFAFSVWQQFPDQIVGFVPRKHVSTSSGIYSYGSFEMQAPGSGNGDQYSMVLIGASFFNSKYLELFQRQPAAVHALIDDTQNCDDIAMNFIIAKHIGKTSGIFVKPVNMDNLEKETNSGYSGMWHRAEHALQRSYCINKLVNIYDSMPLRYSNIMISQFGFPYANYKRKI
UniProt Q8N612: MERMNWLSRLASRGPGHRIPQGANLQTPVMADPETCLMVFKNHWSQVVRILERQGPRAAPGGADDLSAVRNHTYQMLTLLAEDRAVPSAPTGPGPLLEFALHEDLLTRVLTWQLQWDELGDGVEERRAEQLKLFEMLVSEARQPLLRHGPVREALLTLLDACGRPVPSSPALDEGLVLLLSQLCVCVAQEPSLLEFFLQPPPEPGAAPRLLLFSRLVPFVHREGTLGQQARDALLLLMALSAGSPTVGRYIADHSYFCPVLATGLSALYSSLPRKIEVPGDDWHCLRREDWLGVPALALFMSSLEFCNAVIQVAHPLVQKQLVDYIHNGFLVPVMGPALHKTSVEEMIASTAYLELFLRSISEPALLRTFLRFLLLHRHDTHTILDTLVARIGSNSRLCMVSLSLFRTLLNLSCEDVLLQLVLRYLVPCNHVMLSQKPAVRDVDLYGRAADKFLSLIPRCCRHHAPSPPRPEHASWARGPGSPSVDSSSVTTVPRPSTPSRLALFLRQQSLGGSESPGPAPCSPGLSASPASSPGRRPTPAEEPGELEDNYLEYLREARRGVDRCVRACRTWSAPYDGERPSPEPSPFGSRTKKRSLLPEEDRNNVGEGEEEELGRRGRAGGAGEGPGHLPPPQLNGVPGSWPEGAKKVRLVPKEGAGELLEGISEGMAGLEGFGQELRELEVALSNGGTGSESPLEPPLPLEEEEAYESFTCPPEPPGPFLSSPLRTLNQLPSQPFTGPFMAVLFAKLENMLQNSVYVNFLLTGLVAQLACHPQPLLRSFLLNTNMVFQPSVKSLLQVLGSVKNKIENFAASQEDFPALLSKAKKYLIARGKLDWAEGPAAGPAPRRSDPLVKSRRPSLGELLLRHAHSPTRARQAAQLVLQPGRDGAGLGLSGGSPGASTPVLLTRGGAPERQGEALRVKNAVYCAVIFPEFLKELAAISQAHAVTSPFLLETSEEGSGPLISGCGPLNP
UniProt O75477: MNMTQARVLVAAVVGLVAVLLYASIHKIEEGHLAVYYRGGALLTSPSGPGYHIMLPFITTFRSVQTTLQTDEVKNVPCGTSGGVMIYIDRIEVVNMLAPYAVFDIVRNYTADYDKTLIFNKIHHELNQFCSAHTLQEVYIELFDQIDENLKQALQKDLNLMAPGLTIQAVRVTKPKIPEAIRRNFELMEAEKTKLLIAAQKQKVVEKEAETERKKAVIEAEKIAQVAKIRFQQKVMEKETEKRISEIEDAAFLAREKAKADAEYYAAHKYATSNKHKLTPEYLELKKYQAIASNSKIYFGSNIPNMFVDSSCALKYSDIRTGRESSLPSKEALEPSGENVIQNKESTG
UniProt Q9NRY5: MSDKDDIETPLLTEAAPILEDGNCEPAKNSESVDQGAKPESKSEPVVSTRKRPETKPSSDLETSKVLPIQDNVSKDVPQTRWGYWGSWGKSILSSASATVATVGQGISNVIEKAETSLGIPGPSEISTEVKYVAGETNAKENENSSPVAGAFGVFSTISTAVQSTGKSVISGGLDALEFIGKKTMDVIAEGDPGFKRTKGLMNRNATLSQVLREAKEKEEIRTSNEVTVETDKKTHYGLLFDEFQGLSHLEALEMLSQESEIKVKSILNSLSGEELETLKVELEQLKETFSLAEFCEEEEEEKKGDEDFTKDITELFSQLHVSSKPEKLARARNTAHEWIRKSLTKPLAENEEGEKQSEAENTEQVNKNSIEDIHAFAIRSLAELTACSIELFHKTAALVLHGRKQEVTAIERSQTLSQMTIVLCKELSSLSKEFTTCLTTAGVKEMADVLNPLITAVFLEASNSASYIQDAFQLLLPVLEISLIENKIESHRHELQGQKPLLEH
UniProt Q96DZ1: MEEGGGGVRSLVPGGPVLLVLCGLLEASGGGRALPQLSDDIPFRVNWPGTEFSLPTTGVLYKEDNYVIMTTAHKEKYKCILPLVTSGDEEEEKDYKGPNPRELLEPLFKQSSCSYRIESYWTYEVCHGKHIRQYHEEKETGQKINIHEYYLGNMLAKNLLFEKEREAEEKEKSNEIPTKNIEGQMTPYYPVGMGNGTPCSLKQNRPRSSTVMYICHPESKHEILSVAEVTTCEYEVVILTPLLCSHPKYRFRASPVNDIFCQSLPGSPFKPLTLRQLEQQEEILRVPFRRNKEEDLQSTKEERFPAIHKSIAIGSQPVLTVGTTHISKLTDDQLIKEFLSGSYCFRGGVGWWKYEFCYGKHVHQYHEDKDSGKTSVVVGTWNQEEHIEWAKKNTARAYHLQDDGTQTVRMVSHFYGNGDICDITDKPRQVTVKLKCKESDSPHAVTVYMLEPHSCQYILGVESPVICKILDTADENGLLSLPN
UniProt P11474: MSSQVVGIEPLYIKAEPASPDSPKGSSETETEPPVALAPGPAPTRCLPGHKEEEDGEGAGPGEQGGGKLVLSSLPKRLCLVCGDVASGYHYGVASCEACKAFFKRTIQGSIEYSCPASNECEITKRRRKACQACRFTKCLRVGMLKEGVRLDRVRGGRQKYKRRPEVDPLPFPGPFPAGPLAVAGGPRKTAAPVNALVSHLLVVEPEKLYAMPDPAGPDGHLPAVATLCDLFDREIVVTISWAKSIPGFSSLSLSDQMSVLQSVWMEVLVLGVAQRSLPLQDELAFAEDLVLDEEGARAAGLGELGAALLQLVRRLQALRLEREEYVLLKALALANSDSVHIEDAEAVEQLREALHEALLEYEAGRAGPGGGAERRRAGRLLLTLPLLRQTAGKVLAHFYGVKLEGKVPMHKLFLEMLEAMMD

This is one part of the list.

What all share (assay): log2 fold change, soluble protein after heating vs DMSO (PISA); higher = thermal stabilisation; K562 cells, 10 uM, 30 min; active = over 0.2 and 3.5 SD of the protein, either way, in both replicates (recomputed)
Compound in experiment [1]: C1=CC=C(C=C1)[C@H](COC2=CC3=C(C=C2)NC(=O)N3)NC(=O)C4=CC=CN(C4=O)CC5=CC(=C(C=C5)F)F
Summed up:
(§1)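 Aliquots of K562 cells (2×10^6 cells/mL) treated with 10 μM compound for 30 min were heated for 3 min over 48°C-58°C. After pooling and extraction in PBS with 0.5% NP-40 at 4°C, soluble protein from a 21,000xg, 90 min spin was quantified by TMTpro 16plex LC-MS/MS with channel sums equalised. Thermal stability is expressed against control samples, from duplicates, as a log2 fold change.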

Compound in experiment [2]: CC1=C(SC2=C1C(=N[C@H](C3=NN=C(N32)C)CC(=O)N)C4=CC=C(C=C4)Cl)C
The method, boiled down:
as §1

Compound in experiment [3]: CC1=C2C(=CC=C1)N=C(N(C2=O)C3=CC=CC=C3C)CN4C=NC5=C(N=CN=C54)N
Summed up:
as §1

Compound in experiment [4]: Cc1sc2c(c1C)C(c1ccc(Cl)cc1)=N[C@@H](CC(=O)OC(C)(C)C)c1nnc(C)n1-2
The method, boiled down:
as §1

Compound in experiment [5]: c1ccc([C@@H]2C[C@H]2NC2CCNCC2)cc1
The method, boiled down: as §1

As for EXT2 isoform 3 (UniProt Q93063), the log2 fold change in experiment [1] is inactive: 0.052; in experiment [2], inactive: -0.012; in experiment [3], inactive: 0.005; in experiment [4] it was inactive: -0.016; in experiment [5], inactive: 0.033.
Taken in the same sequence, the figures for FAM177A1 isoform 2 (UniProt Q8N128) were inactive: -0.073, inactive: 0.047, inactive: 0.17, inactive: -0.002 and inactive: 0.028.
Taken in the same sequence, the figures for EPCAM (UniProt P16422) were inactive: -0.013, inactive: 0.067, inactive: -0.027, inactive: -0.007 and inactive: 0.008.
For ESD (UniProt P10768), in that order: inactive: 0.002, inactive: 0.022, inactive: 0.05, inactive: -0.05 and inactive: 0.016.
For the target ERMAP (UniProt Q96PL5), the log2 fold change was inactive: -0.047 in experiment [1]; inactive: -0.008 in experiment [2]; inactive: 0.065 in experiment [3]; inactive: -0.045 in experiment [4]; inactive: 0.027 in experiment [5].
For ETNK1 (UniProt Q9HBU6), in that order: inactive: 0, inactive: 0.044, inactive: 0.071, inactive: -0.092 and inactive: 0.022.
With EWSR1 isoform 5 (UniProt Q01844), the log2 fold change is inactive: 0.062 in experiment [1]; inactive: -0.062 in experiment [2]; inactive: -0.004 in experiment [3]; inactive: 0.016 in experiment [4]; inactive: 0.021 in experiment [5].
Taken in the same sequence, the figures for ETFA (UniProt P13804) were inactive: -0.004, inactive: 0.047, inactive: 0.016, inactive: -0.006 and inactive: -0.027.
Taken in the same sequence, the figures for EPRS (UniProt P07814) were inactive: 0.026, inactive: -0.205, inactive: -0.105, inactive: 0.224 and inactive: 0.009.
Taken in the same sequence, the figures for EXOC8 (UniProt Q8IYI6) were inactive: -0.004, inactive: 0.029, inactive: 0.03, inactive: 0.006 and inactive: -0.051.
Take ERO1A (UniProt Q96HE7): the log2 fold change is inactive: 0.025 in experiment [1]; inactive: -0.028 in experiment [2]; inactive: 0.003 in experiment [3]; inactive: -0.033 in experiment [4]; inactive: -0.004 in experiment [5].
In the case of FADS3 (UniProt Q9Y5Q0), the log2 fold change in experiment [1] is inactive: 0.027; in experiment [2], inactive: 0.023; in experiment [3], inactive: 0.026; in experiment [4] it was inactive: 0.025; in experiment [5], inactive: -0.007.
For EPPK1 (UniProt P58107), in that order: inactive: 0.135, inactive: -0.217, inactive: -0.172, inactive: 0.289 and inactive: 0.027.
For EXTL2 (UniProt Q9UBQ6), in that order: inactive: 0.028, inactive: 0.106, inactive: 0.003, active: 0.316 and inactive: -0.211.
Taken in the same sequence, the figures for FAM160A2 isoform 2 (UniProt Q8N612) were inactive: -0.027, inactive: -0.054, inactive: 0.343, inactive: 0.148 and inactive: -0.344.
For ERLIN1 (UniProt O75477), the log2 fold change in experiment [1] is inactive: -0.007; in experiment [2], inactive: -0.036; in experiment [3], inactive: 0.002; in experiment [4], inactive: -0.038; in experiment [5] it was inactive: -0.026.
For EXOC3 (UniProt O60645), in that order: inactive: -0.019, inactive: 0.101, inactive: 0.076, inactive: 0.028 and inactive: -0.068.
For FAM114A2 (UniProt Q9NRY5), in that order: inactive: -0.046, inactive: 0.047, inactive: 0.018, inactive: 0.033 and inactive: 0.006.
Taken in the same sequence, the figures for EXTL3 (UniProt O43909) were inactive: 0.103, inactive: -0.043, inactive: 0.039, inactive: -0.012 and inactive: -0.076.
For the target EPS15L1 isoform 2 (UniProt Q9UBC2), the log2 fold change in experiment [1] was inactive: 0.018; in experiment [2], inactive: -0.001; in experiment [3] it was inactive: 0.041; in experiment [4], inactive: 0.013; in experiment [5] it was inactive: 0.013.
As to ERLEC1 (UniProt Q96DZ1), the log2 fold change in experiment [1] was inactive: 0.039; in experiment [2], inactive: 0.013; in experiment [3] it was inactive: 0.041; in experiment [4], inactive: -0.039; in experiment [5] it was inactive: -0.023.
For ESRRA (UniProt P11474), in that order: inactive: 0.02, inactive: 0.071, inactive: 0.123, inactive: 0.173 and inactive: -0.095.
With ERH (UniProt P84090), the log2 fold change is inactive: 0.173 in experiment [1]; inactive: 0.051 in experiment [2]; inactive: -0.057 in experiment [3]; inactive: -0.064 in experiment [4]; inactive: -0.048 in experiment [5].
For ETF1 (UniProt P62495), in that order: inactive: -0.037, inactive: 0.05, inactive: 0.029, inactive: -0.005 and inactive: -0.019.
